Laboratory results: PubChem BioAssay AID1259308 (NCATS, 2017)

Screen: 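Candidate targets for better recombinant protein yield in mammalian cells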 (primary screen)
Cells: human HEK293 embryonic kidney cells stably expressing firefly luciferase (HEK-CMV-Luc2-Hygro)
Knock-down reagent: single siRNA against human genes, 0.8 pmol siRNA per well
Time to read-out: 72 h
Measurement: 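Reporter luminescence and viable-cell signal on separate replicate plates, given as percent of non-targeting control and median/MAD z-scores, plus per-cell luciferase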
Reading the numbers: total luciferase, z-score and total luciferase, % of control: higher = more reporter protein produced; luciferase per cell, z-score: higher = more reporter output per viable cell; viable cells, % of control: higher = more viable cells
Call rule: 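Active when the median/MAD z-score for overall luciferase is greater than 3; a gene was taken forward for validation with new siRNAs if at least two of its three siRNAs passed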
Meaning of the calls: active = raised luciferase; inactive = no rise
Shown is an unselected part of about 59,000 deposited reagents. About 1,510 of all reagents (2.6%) were called active. 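Calls use total luciferase alone and ignore viability, so some active siRNAs may act by altering cell number.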 The numbers tell different reagents against one gene apart. No sequences are given here.

gene | reagent | total luciferase, z-score | total luciferase, % of control | luciferase per cell, z-score | viable cells, % of control | Outcome
CDK19 (cyclin dependent kinase 19) | 1 | -1.07 | 60.7 | -1.48 | 100 | inactive
CDK19 (cyclin dependent kinase 19) | 2 | 3.39 | 149 | 2.54 | 85.4 | active
CDK19 (cyclin dependent kinase 19) | 3 | -2.42 | 33.7 | -2.29 | 68.9 | inactive
IRS1 (insulin receptor substrate 1) | 1 | 0.796 | 97.7 | 0.692 | 91 | inactive
IRS1 (insulin receptor substrate 1) | 2 | -0.0741 | 80.4 | -0.339 | 98.3 | inactive
IRS1 (insulin receptor substrate 1) | 3 | 1.2 | 106 | 0.864 | 94 | inactive
ITGA10 (integrin subunit alpha 10) | 1 | -0.632 | 69.3 | -0.59 | 90.5 | inactive
ITGA10 (integrin subunit alpha 10) | 2 | 0.374 | 89.3 | -0.49 | 114 | inactive
ITGA10 (integrin subunit alpha 10) | 3 | 0.225 | 86.4 | 0.444 | 85.9 | inactive
MBD5 (methyl-CpG binding domain protein 5) | 1 | 2.3 | 128 | 2.02 | 83.9 | inactive
MBD5 (methyl-CpG binding domain protein 5) | 2 | 0.172 | 85.3 | 0.642 | 80.5 | inactive
MBD5 (methyl-CpG binding domain protein 5) | 3 | 0.216 | 86.2 | -0.127 | 99.6 | inactive
C19orf18 (chromosome 19 open reading frame 18) | 1 | -0.195 | 78 | -0.029 | 87.8 | inactive
C19orf18 (chromosome 19 open reading frame 18) | 2 | -0.664 | 68.7 | -0.712 | 92.6 | inactive
C19orf18 (chromosome 19 open reading frame 18) | 3 | 0.0932 | 83.7 | 0.0656 | 92 | inactive
NFATC4 (nuclear factor of activated T cells 4) | 1 | -0.0281 | 81.3 | 0.521 | 79.2 | inactive
NFATC4 (nuclear factor of activated T cells 4) | 2 | -0.0139 | 81.6 | -0.392 | 101 | inactive
NFATC4 (nuclear factor of activated T cells 4) | 3 | 2.4 | 130 | 2.08 | 83.8 | inactive
RAB40A (RAB40A, member RAS oncogene family) | 1 | -0.324 | 75.4 | -0.574 | 98.1 | inactive
RAB40A (RAB40A, member RAS oncogene family) | 2 | -2.85 | 25.2 | -4.2 | 85.1 | inactive
RAB40A (RAB40A, member RAS oncogene family) | 3 | -1.51 | 51.9 | -1.81 | 93.5 | inactive

Continued; the last 7 above are carried over.
gene | reagent | total luciferase, z-score | total luciferase, % of control | luciferase per cell, z-score | viable cells, % of control | Outcome
C19orf18 (chromosome 19 open reading frame 18) | 3 | 0.0932 | 83.7 | 0.0656 | 92 | inactive
NFATC4 (nuclear factor of activated T cells 4) | 1 | -0.0281 | 81.3 | 0.521 | 79.2 | inactive
NFATC4 (nuclear factor of activated T cells 4) | 2 | -0.0139 | 81.6 | -0.392 | 101 | inactive
NFATC4 (nuclear factor of activated T cells 4) | 3 | 2.4 | 130 | 2.08 | 83.8 | inactive
RAB40A (RAB40A, member RAS oncogene family) | 1 | -0.324 | 75.4 | -0.574 | 98.1 | inactive
RAB40A (RAB40A, member RAS oncogene family) | 2 | -2.85 | 25.2 | -4.2 | 85.1 | inactive
RAB40A (RAB40A, member RAS oncogene family) | 3 | -1.51 | 51.9 | -1.81 | 93.5 | inactive
MTMR14 (myotubularin related protein 14) | 1 | -0.0385 | 81.1 | 0.133 | 87.5 | inactive
MTMR14 (myotubularin related protein 14) | 2 | 0.0414 | 82.7 | -0.396 | 103 | inactive
MTMR14 (myotubularin related protein 14) | 3 | -0.626 | 69.4 | -1.42 | 113 | inactive
PIEZO2 (piezo type mechanosensitive ion channel component 2) | 1 | -0.244 | 77 | 0.515 | 75.2 | inactive
PIEZO2 (piezo type mechanosensitive ion channel component 2) | 2 | 0.89 | 99.6 | 1.24 | 80.4 | inactive
PIEZO2 (piezo type mechanosensitive ion channel component 2) | 3 | -1.27 | 56.7 | -0.948 | 81.3 | inactive
PIEZO2 (piezo type mechanosensitive ion channel component 2) | 4 | -0.107 | 79.8 | -0.338 | 97.4 | inactive
PIEZO2 (piezo type mechanosensitive ion channel component 2) | 5 | -0.521 | 71.5 | -0.284 | 86.1 | inactive
PIEZO2 (piezo type mechanosensitive ion channel component 2) | 6 | -0.827 | 65.4 | -0.732 | 88.7 | inactive
FAM153CP (family with sequence similarity 153 member C, pseudogene) | 1 | -0.399 | 74 | 1.34 | 58.1 | inactive
FAM153CP (family with sequence similarity 153 member C, pseudogene) | 2 | -0.9 | 64 | -0.449 | 80.5 | inactive
FAM153CP (family with sequence similarity 153 member C, pseudogene) | 3 | 1.2 | 106 | 0.315 | 109 | inactive
LINC00619 (long independently transcribed non-coding RNA 619) | 1 | -1.03 | 61.5 | -0.3 | 74.3 | inactive
LINC00619 (long independently transcribed non-coding RNA 619) | 2 | -0.168 | 78.5 | -0.0814 | 89.7 | inactive
LINC00619 (long independently transcribed non-coding RNA 619) | 3 | -1.01 | 61.9 | -0.808 | 85.5 | inactive
SELENON (selenoprotein N) | 1 | -0.324 | 75.4 | -0.938 | 108 | inactive
SELENON (selenoprotein N) | 2 | 0.638 | 94.6 | -0.119 | 109 | inactive
SELENON (selenoprotein N) | 3 | 0.259 | 87 | -0.0675 | 99 | inactive
PPIAP74 (peptidylprolyl isomerase A pseudogene 74) | 1 | -2.31 | 35.9 | -2.39 | 75.3 | inactive
PPIAP74 (peptidylprolyl isomerase A pseudogene 74) | 2 | 0.294 | 87.7 | 1.32 | 69.2 | inactive
PPIAP74 (peptidylprolyl isomerase A pseudogene 74) | 3 | 0.215 | 86.2 | 0.126 | 93.2 | inactive
ZC3H18-DT (ZC3H18 divergent transcript) | 1 | 0.166 | 85.2 | 0.316 | 87.6 | inactive
ZC3H18-DT (ZC3H18 divergent transcript) | 2 | -1.36 | 54.9 | -1.14 | 82.8 | inactive
ZC3H18-DT (ZC3H18 divergent transcript) | 3 | -0.113 | 79.6 | -0.33 | 97.1 | inactive
ATP8B2 (ATPase phospholipid transporting 8B2) | 1 | -0.139 | 79.1 | -0.988 | 115 | inactive
ATP8B2 (ATPase phospholipid transporting 8B2) | 2 | 0.119 | 84.3 | 0.526 | 82 | inactive
ATP8B2 (ATPase phospholipid transporting 8B2) | 3 | 3.08 | 143 | 1.88 | 97.5 | active
CXCL13 (C-X-C motif chemokine ligand 13) | 1 | 0.438 | 90.6 | 0.137 | 97.6 | inactive
CXCL13 (C-X-C motif chemokine ligand 13) | 2 | 0.786 | 97.5 | 1.08 | 82 | inactive
CXCL13 (C-X-C motif chemokine ligand 13) | 3 | 1.61 | 114 | 1.89 | 77.4 | inactive
DEXI (Dexi homolog) | 1 | -0.465 | 72.6 | -1.01 | 106 | inactive
DEXI (Dexi homolog) | 2 | 1.6 | 114 | 0.922 | 99.7 | inactive
DEXI (Dexi homolog) | 3 | -0.663 | 68.7 | -0.954 | 98.7 | inactive
SMC5 (structural maintenance of chromosomes 5) | 1 | -0.0917 | 80.1 | 0.0152 | 89.1 | inactive
SMC5 (structural maintenance of chromosomes 5) | 2 | -0.0578 | 80.7 | -0.354 | 99 | inactive
SMC5 (structural maintenance of chromosomes 5) | 3 | -0.514 | 71.7 | -0.68 | 95.8 | inactive
